Measurements reported in PubChem BioAssay AID1259254 (NCATS, 2017)

Assay: 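Gene knock-downs that lead to re-replication, shown by excess G2 DNA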 (primary screen)
Cells: human HCT116 colorectal cancer cells
Reagents: single siRNA against human genes
Time to read-out: 3 days
Measured: 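Nuclei stained with Hoechst and imaged; cell-cycle phase assigned by DNA content; G2 share scaled per plate, non-targeting siRNA 0%, GMNN siRNA 100%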
Reading the numbers: G2 robust z-score and G2 cells, % of GMNN control: higher = more G2 cells, more excess DNA replication
Active means: 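An siRNA counts as active if its G2 robust z-score lies at least 5 MADs above the screen median; here such calls match roughly 38% of GMNN control or more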
Here is a random part of about 59,000 reagents. Over the whole deposit, about 1,550 (2.6%) were called active. 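G2 share is only a proxy for re-replication; each gene was hit by three separate siRNAs, and active genes were retested.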 Unmarked entries are inactive. The numbers tell different reagents against one gene apart. Further read-outs or replicates are left out here. Not stated in the record: the amount of reagent.

target gene	siRNA no.	G2 robust z-score	G2 cells, % of GMNN control
FAM171A2 (family with sequence similarity 171 member A2)	1	-0.242	1.27
FAM171A2 (family with sequence similarity 171 member A2)	2	-0.151	1.9
FAM171A2 (family with sequence similarity 171 member A2)	3	-0.878	-3.21
LANCL3 (LanC like family member 3)	1	-1.36	-6.57
LANCL3 (LanC like family member 3)	2	-0.181	1.69
LANCL3 (LanC like family member 3)	3	-0.786	-2.56
NTN1 (netrin 1)	1	-0.518	-0.677
NTN1 (netrin 1)	2	0.255	4.76
NTN1 (netrin 1)	3	-0.473	-0.36
PRSS35 (serine protease 35)	1	-0.703	-1.98
PRSS35 (serine protease 35)	2	2.28	19
PRSS35 (serine protease 35)	3	-1.06	-4.52
CNTNAP1 (contactin associated protein 1)	1	-0.329	0.653
CNTNAP1 (contactin associated protein 1)	2	2.12	17.9
CNTNAP1 (contactin associated protein 1)	3	1.05	10.3
LTB4R (leukotriene B4 receptor)	1	0.281	4.94
LTB4R (leukotriene B4 receptor)	2	-0.546	-0.876
LTB4R (leukotriene B4 receptor)	3	0.393	5.73
CNMD (chondromodulin)	1	-1.03	-4.26
CNMD (chondromodulin)	2	0.592	7.13
CNMD (chondromodulin)	3	-0.109	2.2
POMGNT2	1	-0.807	-2.71
POMGNT2	2	1.5	13.6
POMGNT2	3	-0.896	-3.33
SRP54 (signal recognition particle 54)	1	2.39	19.8
SRP54 (signal recognition particle 54)	2	1.31	12.2
SRP54 (signal recognition particle 54)	3	3.61	28.4
EDEM3 (ER degradation enhancing alpha-mannosidase like protein 3)	1	-0.305	0.822
EDEM3 (ER degradation enhancing alpha-mannosidase like protein 3)	2	1.64	14.5
EDEM3 (ER degradation enhancing alpha-mannosidase like protein 3)	3	1.55	13.8
LINC00687 (long independently transcribed non-coding RNA 687)	1	-0.0032	2.94
LINC00687 (long independently transcribed non-coding RNA 687)	2	-0.75	-2.31
LINC00687 (long independently transcribed non-coding RNA 687)	3	-0.46	-0.267
TCF19 (transcription factor 19)	1	0.745	8.21
TCF19 (transcription factor 19)	2	-0.293	0.908
TCF19 (transcription factor 19)	3	-1.05	-4.42
SETDB1 (SET domain bifurcated histone lysine methyltransferase 1)	1	1.54	13.8
SETDB1 (SET domain bifurcated histone lysine methyltransferase 1)	2	-0.499	-0.54
SETDB1 (SET domain bifurcated histone lysine methyltransferase 1)	3	-0.0523	2.6
NUDT16L1 (nudix hydrolase 16 like 1)	1	-0.261	1.13
NUDT16L1 (nudix hydrolase 16 like 1)	2	-0.761	-2.39
NUDT16L1 (nudix hydrolase 16 like 1)	3	3.51	27.6
OCLN (occludin)	1	-1.14	-5.08
OCLN (occludin)	2	-0.621	-1.41
OCLN (occludin)	3	0.625	7.36
C11orf86 (chromosome 11 open reading frame 86)	1	0.778	8.44
C11orf86 (chromosome 11 open reading frame 86)	2	-0.213	1.47
C11orf86 (chromosome 11 open reading frame 86)	3	0.198	4.36

5 entries from above, arranged by “G2 robust z-score”, descending:
target gene	siRNA no.	G2 robust z-score	G2 cells, % of GMNN control
EDEM3 (ER degradation enhancing alpha-mannosidase like protein 3)	3	1.55	13.8
TCF19 (transcription factor 19)	1	0.745	8.21
LINC00687 (long independently transcribed non-coding RNA 687)	1	-0.0032	2.94
LINC00687 (long independently transcribed non-coding RNA 687)	3	-0.46	-0.267
LINC00687 (long independently transcribed non-coding RNA 687)	2	-0.75	-2.31
